These are yes or no findings as the source states them, for the method shown. Binding seen in cells or lysates may run through a third protein. Some entries that bind do so weakly or less than the wild type. Where a sequence is shown, tags or fusion partners need not be part of it.
Molecular target: T1, FLAG-HsGeminin-His6 (wild type) (human) (UniProt O75496)
T1 sequence: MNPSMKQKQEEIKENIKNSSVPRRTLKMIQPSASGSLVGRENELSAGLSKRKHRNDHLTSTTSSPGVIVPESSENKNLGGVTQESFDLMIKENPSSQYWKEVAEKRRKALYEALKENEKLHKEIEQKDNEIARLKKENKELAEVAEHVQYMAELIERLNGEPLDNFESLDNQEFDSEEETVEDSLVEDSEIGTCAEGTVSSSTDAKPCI
Assay: co-IP; extract of Sf9 cells expressing one untagged HsMCM subunit mixed with extract of Sf9 cells expressing Myc-HsCdc6, FLAG-HsCdt1 and/or FLAG-HsGeminin-His6; anti-FLAG or anti-Myc agarose beads, 4 °C, 3 h; PBS plus 1% Triton X-100; washed with PBS; Western blot

Protein sequences, listed by entry. Tags and fused reporters are not part of them.
UniProt P25205: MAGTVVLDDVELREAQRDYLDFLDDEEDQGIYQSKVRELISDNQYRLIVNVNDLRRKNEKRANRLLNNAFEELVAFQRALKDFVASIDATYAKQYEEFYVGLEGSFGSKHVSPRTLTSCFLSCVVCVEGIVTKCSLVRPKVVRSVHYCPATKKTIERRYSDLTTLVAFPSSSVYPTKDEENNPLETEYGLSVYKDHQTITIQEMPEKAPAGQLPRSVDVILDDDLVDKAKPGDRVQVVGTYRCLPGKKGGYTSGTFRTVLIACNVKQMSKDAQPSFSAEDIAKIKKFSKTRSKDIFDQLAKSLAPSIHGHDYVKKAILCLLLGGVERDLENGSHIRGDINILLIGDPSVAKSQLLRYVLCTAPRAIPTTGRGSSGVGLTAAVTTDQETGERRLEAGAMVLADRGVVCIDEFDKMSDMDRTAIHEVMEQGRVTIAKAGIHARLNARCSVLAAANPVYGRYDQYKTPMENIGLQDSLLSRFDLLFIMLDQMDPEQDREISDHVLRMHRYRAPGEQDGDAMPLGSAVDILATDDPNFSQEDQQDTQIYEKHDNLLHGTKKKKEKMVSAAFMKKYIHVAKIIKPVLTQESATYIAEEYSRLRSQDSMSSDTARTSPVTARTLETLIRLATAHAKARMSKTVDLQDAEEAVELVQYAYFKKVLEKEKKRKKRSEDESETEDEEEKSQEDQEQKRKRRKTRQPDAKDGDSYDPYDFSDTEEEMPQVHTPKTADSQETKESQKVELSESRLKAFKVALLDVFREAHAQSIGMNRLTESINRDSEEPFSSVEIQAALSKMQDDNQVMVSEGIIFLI

untagged human Mcm3 (from UniProt P25205 1-808)
binding: binds
